Test results from patent publication EP3045469A1 (priority 2015, dated 2016).
Some peptides are written in HELM: one residue between dots, names in brackets for other building blocks, links after the first $.

Assay: peptide synthesis
Settings: whole synthesis, sulfate

| Substance | final HPLC purity [%] | final HPLC purity (run 1) [%] | final HPLC purity (run 2) [%] |
| --- | --- | --- | --- |
| PEPTIDE1{[OA].T.[dS].[Dab].[Dab].[dF].L.[Dab].[Dab].T}$PEPTIDE1,PEPTIDE1,4:R3-10:R2$$$V2.0 | 97.3 |  |  |
| PEPTIDE1{[OA].[Dab].T.[dT].[Dab].[Dab].[dF].L.[Abu].[Dab].T}$PEPTIDE1,PEPTIDE1,5:R3-11:R2$$$V2.0 |  | 98.8 | 98.4 |
